Source: publication PMC7239026
These are yes or no findings as the source states them, for the method shown. A result given as binding can be weak or reduced; the word gives no strength. Where a sequence is shown, tags or fusion partners need not be part of it.

Biological target: human fibronectin (human)
Assay: ELISA; human glycoproteins coated on 96-well plates (5 ug/mL in 75 mM sodium carbonate buffer pH 9.6, 18 h at 4°C); blocked with 3% fish gelatin; rPepO (10 to 50 ug/mL) or rCnmA (0.125 to 2 ug/mL) in 50 mM HEPES pH 7.4, 150 mM NaCl, 2 mM CaCl2, 50 ug/mL BSA, 2 h at 37°C; bound protein detected with rabbit antiserum and peroxidase conjugate, A450 nm; wells with 1% BSA as control; both purified

B1: His-tagged PepO recombinant protein (rPepO), endopeptidase O of Streptococcus mutans (protein, UniProt I6L8Y4 1-631)
chain: MVRLQDDFYNAVNGQWEEAAVIPDDKPRTGGFSDLADDIEDLMLETTDKWLDGKDVPDDSILQNFVKFHRQVADYDAREETGVKPVLPLIEEYKSLTSFADFASNIATYEMAGKPNELPFGVAPDFMNAQMNVLWAEAPNLILPDTTYYAEGNDKGKELLAKWRTMQEELLPKFGFEEAEIKDLLDKVLTLDAKLAQYVLSSEESSEYVKLYHPYDWADFTKLTPELPLDAIFTQILGQKPDKVIVPEERFWTNFAAEFYSEKNWPFLKATLVLAAASSYNSYLTDDIRILSGSYNRALSGTPQAMGKKKAAFYLAQGPYNQALGLWYAGEKFSPEAKKDVEAKVATMIEVYKERLHKTDWLAQETRNKAITKLNVITPHIGYPEQLPKTYAQKIIDDNLSLVENAQNLAKISIAYNWSKWNQPVDRSEWHMPAHMVNAYYDPQQNQIVFPAAILQAPFYSLEQSSSANYGGIGAVIAHEISHAFDTNGASFDENGSLNNWWTDEDYAAFKKRTDRVVEQFEGLDSYGAKVNGQLTVSENVADLGGLACALEAAKREADFSVRDFFINFATIWRMKARDEYMQMLASIDVHAPAKWRTNVTITNFDEFHQEFAVKEGDGMWRDEDKRVIIW
binding: binds
